In article PMC10620401 one finds binding data, which are given here for one substance.

The chains behind the UniProt entries cited, without tags or fusion partners. Where a name states a change or a piece, a line headed by the entry shows the natural chain unless it says otherwise.
UniProt Q6IAA8: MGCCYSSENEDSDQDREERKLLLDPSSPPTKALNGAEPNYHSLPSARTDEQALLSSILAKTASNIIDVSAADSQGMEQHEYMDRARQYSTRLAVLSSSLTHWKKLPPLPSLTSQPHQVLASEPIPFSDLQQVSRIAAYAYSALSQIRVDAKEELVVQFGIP
UniProt P27449: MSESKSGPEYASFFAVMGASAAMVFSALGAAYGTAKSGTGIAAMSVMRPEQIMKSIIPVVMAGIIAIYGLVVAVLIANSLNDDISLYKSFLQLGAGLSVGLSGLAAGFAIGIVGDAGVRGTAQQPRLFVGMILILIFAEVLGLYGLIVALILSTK

No constants are given. Whether binding was seen depends on the method and setting. In cells and extracts the contact can be indirect. Some entries that bind do so weakly or less than the wild type.

The assay addresses FLAG-tagged p18 (UniProt Q6IAA8). The assay is described as follows: co-IP; HEK293T cells with or without 1 mM D-mannose for 24 h; lysed in IP buffer, supernatants immunoprecipitated with the indicated antibodies overnight at 4 °C, protein A or G agarose beads for 3 h, five washes with IP buffer, immunoblot.

With “HA-tagged V0C (from UniProt P27449 1-155)”, the binding result was “binds”.
